In article doi:10.1101/2021.12.06.471409:
No constants are given. Whether binding was seen depends on the method and setting. In cells and extracts the contact can be indirect. Some entries that bind do so weakly or less than the wild type. Where a sequence is shown, tags or fusion partners need not be part of it.

Amino acid sequences for entries named in this document (tags omitted).
UniProt Q96S21, whole entry: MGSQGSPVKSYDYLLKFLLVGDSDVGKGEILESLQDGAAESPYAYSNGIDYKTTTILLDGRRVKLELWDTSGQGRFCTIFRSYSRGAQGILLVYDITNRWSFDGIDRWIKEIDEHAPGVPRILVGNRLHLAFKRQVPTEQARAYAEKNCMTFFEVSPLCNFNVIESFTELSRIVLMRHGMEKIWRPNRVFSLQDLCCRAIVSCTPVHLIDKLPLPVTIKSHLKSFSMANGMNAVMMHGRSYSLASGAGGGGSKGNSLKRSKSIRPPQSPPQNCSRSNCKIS

Tests used:
Assay in all cases: co-IP
FLAG-PP6c (human) = target: T1, FLAG-PP6c (human) (UniProt O00743)
T1 sequence: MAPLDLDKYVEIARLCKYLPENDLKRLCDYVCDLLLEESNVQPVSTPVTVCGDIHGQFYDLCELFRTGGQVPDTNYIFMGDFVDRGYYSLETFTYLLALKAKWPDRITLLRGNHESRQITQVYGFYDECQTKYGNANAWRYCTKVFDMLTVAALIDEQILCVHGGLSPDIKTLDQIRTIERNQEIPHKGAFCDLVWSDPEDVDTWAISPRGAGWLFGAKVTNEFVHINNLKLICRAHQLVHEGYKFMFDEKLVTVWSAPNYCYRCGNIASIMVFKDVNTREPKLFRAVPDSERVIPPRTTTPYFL

FLAG-ANKRD52 (human) = target: T2, FLAG-ANKRD52 (human) (UniProt Q8NB46)
T2 sequence: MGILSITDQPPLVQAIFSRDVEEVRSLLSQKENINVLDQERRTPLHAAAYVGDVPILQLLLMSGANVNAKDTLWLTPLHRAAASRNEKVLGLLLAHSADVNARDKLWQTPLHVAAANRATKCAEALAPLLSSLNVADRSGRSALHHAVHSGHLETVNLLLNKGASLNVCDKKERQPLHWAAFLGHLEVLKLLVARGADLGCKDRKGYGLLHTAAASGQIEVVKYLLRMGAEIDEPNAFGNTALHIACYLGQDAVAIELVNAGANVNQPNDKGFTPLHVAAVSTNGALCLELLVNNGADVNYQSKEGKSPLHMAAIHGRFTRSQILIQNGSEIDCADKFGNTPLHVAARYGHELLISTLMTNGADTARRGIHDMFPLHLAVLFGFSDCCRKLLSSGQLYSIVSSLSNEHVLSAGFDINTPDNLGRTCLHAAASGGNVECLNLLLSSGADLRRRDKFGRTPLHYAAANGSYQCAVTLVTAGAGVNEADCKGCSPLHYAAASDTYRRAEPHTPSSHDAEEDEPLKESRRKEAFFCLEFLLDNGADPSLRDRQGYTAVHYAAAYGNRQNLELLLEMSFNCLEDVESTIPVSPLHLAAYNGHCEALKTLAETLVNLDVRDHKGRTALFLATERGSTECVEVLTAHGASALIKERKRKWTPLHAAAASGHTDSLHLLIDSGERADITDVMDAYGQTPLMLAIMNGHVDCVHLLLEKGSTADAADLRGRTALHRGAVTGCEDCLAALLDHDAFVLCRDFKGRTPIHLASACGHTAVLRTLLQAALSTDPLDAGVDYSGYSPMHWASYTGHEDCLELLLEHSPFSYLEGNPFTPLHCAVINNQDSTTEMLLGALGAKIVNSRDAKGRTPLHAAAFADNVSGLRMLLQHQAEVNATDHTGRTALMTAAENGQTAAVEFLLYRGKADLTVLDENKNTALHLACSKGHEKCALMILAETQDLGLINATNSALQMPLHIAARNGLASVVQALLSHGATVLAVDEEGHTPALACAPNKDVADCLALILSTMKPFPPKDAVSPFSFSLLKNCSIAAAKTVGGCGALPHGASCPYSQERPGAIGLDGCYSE

[1] = target: T3, FLAG-PP6R1(518-881) (human) (UniProt Q9UPN7)
T3 sequence: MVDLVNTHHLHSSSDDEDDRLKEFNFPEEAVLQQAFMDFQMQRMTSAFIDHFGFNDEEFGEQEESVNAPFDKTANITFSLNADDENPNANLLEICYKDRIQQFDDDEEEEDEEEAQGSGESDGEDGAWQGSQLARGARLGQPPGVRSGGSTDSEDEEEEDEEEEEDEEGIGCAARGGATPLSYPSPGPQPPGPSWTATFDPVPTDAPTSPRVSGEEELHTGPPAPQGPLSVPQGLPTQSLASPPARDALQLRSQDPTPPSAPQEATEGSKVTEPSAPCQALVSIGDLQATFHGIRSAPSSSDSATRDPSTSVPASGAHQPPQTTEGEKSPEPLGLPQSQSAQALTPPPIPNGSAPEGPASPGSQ

FLAG-PP6R1 (human) = target: T4, FLAG-PP6R1 (human) (UniProt Q9UPN7)
T4 sequence: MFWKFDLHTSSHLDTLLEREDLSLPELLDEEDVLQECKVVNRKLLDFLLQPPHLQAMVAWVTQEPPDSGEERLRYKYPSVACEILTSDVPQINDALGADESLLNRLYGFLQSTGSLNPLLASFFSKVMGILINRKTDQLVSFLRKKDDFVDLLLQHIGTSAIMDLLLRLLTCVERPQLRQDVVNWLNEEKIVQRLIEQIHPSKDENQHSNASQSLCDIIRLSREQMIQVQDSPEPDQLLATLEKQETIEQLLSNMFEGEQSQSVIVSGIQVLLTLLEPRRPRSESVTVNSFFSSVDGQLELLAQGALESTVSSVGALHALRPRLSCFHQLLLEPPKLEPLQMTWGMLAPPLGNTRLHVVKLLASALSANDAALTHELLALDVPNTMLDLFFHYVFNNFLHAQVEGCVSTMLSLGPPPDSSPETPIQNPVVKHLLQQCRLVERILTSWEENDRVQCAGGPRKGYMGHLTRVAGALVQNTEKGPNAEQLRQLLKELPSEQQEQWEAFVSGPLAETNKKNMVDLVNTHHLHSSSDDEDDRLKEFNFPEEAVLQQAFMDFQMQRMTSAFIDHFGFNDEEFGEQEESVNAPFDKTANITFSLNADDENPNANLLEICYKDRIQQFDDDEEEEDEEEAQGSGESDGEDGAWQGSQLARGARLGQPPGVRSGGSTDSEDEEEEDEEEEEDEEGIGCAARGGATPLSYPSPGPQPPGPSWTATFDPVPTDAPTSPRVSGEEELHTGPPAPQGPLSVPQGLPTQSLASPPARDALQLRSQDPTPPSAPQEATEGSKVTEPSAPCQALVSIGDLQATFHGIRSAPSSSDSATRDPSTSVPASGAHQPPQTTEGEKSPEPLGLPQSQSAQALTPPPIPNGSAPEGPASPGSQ

Measured: binding

HA-Rab40c (from UniProt Q96S21 1-281)
binds: FLAG-PP6c (human) | FLAG-ANKRD52 (human) | [1] | FLAG-PP6R1 (human)
